Assay results from patent publication US6939534B2, “Method to treat pulmonary hypoplasia in the newborn” (GenoMed, LLC, priority 2001, dated 2005).

Assay: Radioreceptor assay (RRA) of EGF receptor-reactive material in acidified, heated amniotic fluid
Settings: human amniotic fluid

Substance: epidermal growth factor [EGF]
- EGF (by RRA; mean ± SEM) (21-25 weeks gestation, acidified and heated): 4.06 ± 2.43 ng/mL
- EGF (by RRA; mean ± SEM) (26-30 weeks gestation, acidified and heated): 6.68 ± 2.09 ng/mL
- EGF (by RRA; mean ± SEM) (31-35 weeks gestation, acidified and heated): 12.62 ± 3.69 ng/mL
- EGF (by RRA; mean ± SEM) (36-40 weeks gestation, acidified and heated): 4.25 ± 0.49 ng/mL
- EGF (by RRA; mean ± SEM) (<16 weeks gestation, acidified pH 1-2 and heated 100° C. 5 min): 6.5 ± 1.33 ng/mL
